Screening data, single-dose tests

Measurements from “University of Dundee, Small-Polar-MMV Screening Library” (2021), ChEMBL document CHEMBL3988442.

Mtb glucose medium: 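Growth of Mycobacterium tuberculosis over 3 days (7H9 medium with glucose and tyloxapol); the read-out is not stated. Concentration: 50 µM. The record gives no direction; compounds that gave an IC50 in retests scored well above the rest, so higher reads as more growth inhibition. Of about 69,000 compounds tested this way, about 760 (1.1%) reached 50% or more in at least one test.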
Mtb cholesterol medium: 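Phenotypic screen: M. tuberculosis growth, cholesterol and DPPC medium, 4 days; the read-out is not stated. Compounds at 50 µM. Direction is inferred from retests: higher values go with more growth inhibition. Size under these conditions: about 69,000 compounds, about 370 of them at 50% or above in at least one test.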

Each number is a percent effect as filed.
How 0% and 100% were set is not recorded. Most values in the screen are low, and negative values occur.
This is an unselected part of the compounds tested.
Two or more numbers in one place are separate tests of the same structure; such repeats can differ widely.

* CCCc1ccc(C(C)Nc2ncnc3c2CCNC3)cc1 (stereo not shown) | Mtb glucose medium: 36.03%; Mtb cholesterol medium: 27.42%
* Cn1nc(-c2ccccc2)c(Br)c1C(=O)O | Mtb glucose medium: -23.63%; Mtb cholesterol medium: -3.626%
* CCC(=O)Nc1cccc(OCC(=O)N(C)Cc2nc(C)c[nH]2)c1 | Mtb glucose medium: -3.383%; Mtb cholesterol medium: -16.52%
* COc1ccc(-c2noc(C(=O)NCCN3CCCCC3)n2)cc1OC | Mtb glucose medium: -25.27%; Mtb cholesterol medium: -25.95%
* CS(=O)(=O)Nc1ccc(-n2c(CCCO)nc3ccccc32)cn1 | Mtb glucose medium: 14.03%; Mtb cholesterol medium: -7.82%
* CCc1nc(C)c(C(=O)N2C[C@@H](C(=O)O)[C@H](C3CC3)C2)s1 | Mtb glucose medium: -8.912%; Mtb cholesterol medium: 2.009%
* CC(C)Oc1cccc(CN(C)C(=O)Nc2cccn(C)c2=O)c1 | Mtb glucose medium: -16.03% and -1.416%; Mtb cholesterol medium: -10.54%
* COc1ccc(C(C(=O)O)N2CCCN(C3CCCC3)CC2)cc1OC (stereo not shown) | Mtb glucose medium: -0.456%; Mtb cholesterol medium: -3.438%
* CSCCc1ccc(NC(=O)NC(C)Cn2cncn2)cc1 (stereo not shown) | Mtb glucose medium: -10.08%; Mtb cholesterol medium: -19.82%
* Cc1ccc(F)cc1S(=O)(=O)N1C[C@@H](C)[C@@](C)(O)C1 | Mtb glucose medium: -13.73%; Mtb cholesterol medium: -3.418%
* NC(=O)CN1CCCC(c2cncc(Nc3ncccn3)n2)C1 (stereo not shown) | Mtb glucose medium: 26.19%; Mtb cholesterol medium: 10.91%
* CCOc1ccccc1CNC(=O)NCC(c1cnn(C)c1)N(C)C (stereo not shown) | Mtb glucose medium: -2.459%; Mtb cholesterol medium: -5.656%
* Cc1cc(C)c2[nH]c(=O)c(CN3CCCC(O)(CO)C3)cc2c1 (stereo not shown) | Mtb glucose medium: -14.27%; Mtb cholesterol medium: 3.753%
* N#Cc1nc(COc2ccc3c(c2)OCO3)oc1N1CCCCCC1 | Mtb glucose medium: 17.65%; Mtb cholesterol medium: 3.631%
* CN1CCOC(c2cncc(CCC(=O)N(C)C)n2)C1 (stereo not shown) | Mtb glucose medium: 1.964%; Mtb cholesterol medium: -4.669%
* COC(=O)NCC(=O)N(C)Cc1csc(-c2cccs2)n1 | Mtb glucose medium: 1.565%; Mtb cholesterol medium: 20.93%
* CC(=O)NCCC1CCCCN1S(=O)(=O)c1cccc(Cl)c1 (stereo not shown) | Mtb glucose medium: -37.94%; Mtb cholesterol medium: -40.92%
* O=S1(=O)COCCN1Cc1ccc(Cl)c(F)c1 | Mtb glucose medium: 8.37%; Mtb cholesterol medium: 17.36%
* CCc1n[nH]c(C2CN(C(=O)CCc3cscn3)CCO2)n1 (stereo not shown) | Mtb glucose medium: 6.887%; Mtb cholesterol medium: 5.049%
* CC(C)COC1CCN(C(=O)c2cc3ccccc3c(=O)[nH]2)CC1 | Mtb glucose medium: 10.16%; Mtb cholesterol medium: -8.572%
* CN1Cc2ccccc2N(CC(O)C(F)(F)F)CCC1=O (stereo not shown) | Mtb glucose medium: 10.29%; Mtb cholesterol medium: 1.135%
* Cc1ccc(CN2CCOCC2)cc1NC(=O)c1ccsc1 | Mtb glucose medium: -10.73%; Mtb cholesterol medium: -15.44%
* CSC(C)C(=O)N1CCCN(Cc2cnn(C(C)C)c2)CC1 (stereo not shown) | Mtb glucose medium: -13.87%; Mtb cholesterol medium: -15.05%
* O=C(O)C(F)(F)F.O=C(O)C(F)(F)F.[H][C@@]12CCN(C)C[C@]1(C(=O)NCCc1ccccn1)CCO2 | Mtb glucose medium: -6.177%; Mtb cholesterol medium: -23.8%
* COc1cccc([C@H]2CN(C(=O)c3scc4c3CCCC4)C[C@@H]2N)c1 | Mtb glucose medium: 0.914% and 20.26%; Mtb cholesterol medium: 21.14%

3 of the entries, repeated:

COc1ccc(C(C(=O)O)N2CCCN(C3CCCC3)CC2)cc1OC (stereo not shown) read Mtb glucose medium: -0.456%; Mtb cholesterol medium: -3.438%.
CN1Cc2ccccc2N(CC(O)C(F)(F)F)CCC1=O (stereo not shown) read Mtb glucose medium: 10.29%; Mtb cholesterol medium: 1.135%.
Cn1nc(-c2ccccc2)c(Br)c1C(=O)O read Mtb glucose medium: -23.63%; Mtb cholesterol medium: -3.626%.